Laboratory results: PubChem BioAssay AID1224826 (NIAID, 2016)
Shown is an unselected part of about 17,000 deposited reagents. Of all reagents, about 1,110 (6.6%) got an active call. 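Active means lowered or raised reporter signal; replicate intensities are raw and not normalised per plate.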 Entries without a mark were called inactive. Reagents against one gene are numbered here. Not all columns of the deposit are shown. No sequences are given here.

- Screen: 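Genes that change LPS-induced Tnf promoter activity in mouse macrophages when knocked down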 (primary screen)
- System: RAW264.7 G9 macrophages from mouse bearing reporters for p65 (GFP) and the Tnf promoter (mCherry)
- Reagents: siRNA pool against mouse genes, 100 nM
- Duration: 16 h of LPS stimulation, after 2 days of siRNA transfection
- Treatment: bacterial lipopolysaccharide (Salmonella minnesota R595), 10 ng/ml
- Measurement: 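Nuclear mCherry signal of the Tnf promoter reporter measured by imaging after background removal, scaled to each plate median and turned into robust z-scores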
- Reading the numbers: Tnf reporter robust z-score: higher = stronger Tnf promoter reporter signal after LPS
- Active means: 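Called active when robust z-score is at most -1.3, matching the median of the Tlr4 knock-down control, or over 3; control wells and wells with under 50 cells never active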
- Calls: active = Tnf reporter clearly lowered or raised; inactive = no clear change in Tnf reporter

Gene	pool no.	Tnf reporter robust z-score	fewer than 50 cells in well
Aph1a	1	2.28	enough cells in well
Pcdhb12	1	-0.25	enough cells in well
Spag11a	1	1.32	enough cells in well
Zfp2	1	-0.19	enough cells in well
Pdcd11	1		fewer than 50 cells per well; well left out of calls
Med20	1	-0.5	enough cells in well
Gys1	1	-0.82	enough cells in well
Gys1	2	-0.07	enough cells in well
Mdn1	1	0.39	enough cells in well
Ythdc1	1	1.21	enough cells in well
Gm20735	1	1.13	enough cells in well
Ap5m1	1		fewer than 50 cells per well; well left out of calls
Or10n1	1	-0.64	enough cells in well
Il36a	1	-0.24	enough cells in well
Top2b	1	0.06	enough cells in well
Casq1	1	-0.6	enough cells in well
Obscn	1	-0.44	enough cells in well
Plgrkt	1	-1.3 (active)	enough cells in well
Ints1	1	0.68	enough cells in well
Rcor2	1	2.21	enough cells in well
Nae1	1	0.45	enough cells in well
Siglece	1	0.11	enough cells in well
Tlr7	1	-0.75	enough cells in well
Ipmk	1	-0.15	enough cells in well
Sim1	1	0.2	enough cells in well
9930014A18Rik	1	-0.04	enough cells in well
Cdkn3	1	1.19	enough cells in well
Dkk2	1	0.28	enough cells in well
Eme1	1	-0.69	enough cells in well
Or4d10c	1	2.41	enough cells in well
Smc3	1	-0.56	enough cells in well
Calhm6	1	2.08	enough cells in well
Mief1	1	0.31	enough cells in well
Tgm5	1	4.23 (active)	enough cells in well
Zup1	1	2.41	enough cells in well
Tdpoz3	1	-0.63	enough cells in well
Scd4	1	1	enough cells in well
Hacl2	1	-0.62	enough cells in well
Cdc42ep4	1	-0.78	enough cells in well
4933440M02Rik	1	-0.43	enough cells in well
Hexim1	1	0.27	enough cells in well
Utp23	1	0.27	enough cells in well
Eddm3b	1	-1.04	enough cells in well
Aurkaip1	1	0.79	enough cells in well
Ube2d3	1	3.23 (active)	enough cells in well
Hmga1	1	-0.98	enough cells in well
Parp3	1	-1.26	enough cells in well
Cfl1	1	2.59	enough cells in well
Gfm2	1	-0.22	enough cells in well
Ccdc14	1	2.46	enough cells in well
Stx8	1	1.06	enough cells in well
Ganab	1	-1.04	enough cells in well
Ptger3	1	-0.92	enough cells in well
Mrpl10	1	-1.37 (active)	enough cells in well
Or5b3	1	1.33	enough cells in well
Pira4	1	0.85	enough cells in well
Fmn1	1	0.55	enough cells in well
Ccdc82	1		fewer than 50 cells per well; well left out of calls

Laid out differently: results already given
{"Gene": "Rcor2", "pool no.": 1, "Tnf reporter robust z-score": 2.21, "fewer than 50 cells in well": "enough cells in well"}
{"Gene": "Nae1", "pool no.": 1, "Tnf reporter robust z-score": 0.45, "fewer than 50 cells in well": "enough cells in well"}
{"Gene": "Siglece", "pool no.": 1, "Tnf reporter robust z-score": 0.11, "fewer than 50 cells in well": "enough cells in well"}
{"Gene": "Tlr7", "pool no.": 1, "Tnf reporter robust z-score": -0.75, "fewer than 50 cells in well": "enough cells in well"}
{"Gene": "Ipmk", "pool no.": 1, "Tnf reporter robust z-score": -0.15, "fewer than 50 cells in well": "enough cells in well"}
{"Gene": "Sim1", "pool no.": 1, "Tnf reporter robust z-score": 0.2, "fewer than 50 cells in well": "enough cells in well"}
{"Gene": "9930014A18Rik", "pool no.": 1, "Tnf reporter robust z-score": -0.04, "fewer than 50 cells in well": "enough cells in well"}
